Measured values: article PMC9163188
These are yes or no findings as the source states them, for the method shown. Binding seen in cells or lysates may run through a third protein. A yes stands for co-enrichment or nearness to the bait. Other partners may have been found. Tags and fused reporters may be left off the sequences shown.

Chains of the proteins cited; added tags and fusions are not shown.
UniProt P99999: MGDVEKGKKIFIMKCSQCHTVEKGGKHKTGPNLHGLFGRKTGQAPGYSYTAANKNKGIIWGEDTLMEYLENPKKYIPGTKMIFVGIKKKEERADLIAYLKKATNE

Target: T1, Flag-USP53 (ubiquitin-specific peptidase 53) (UniProt Q70EK8)
T1 sequence: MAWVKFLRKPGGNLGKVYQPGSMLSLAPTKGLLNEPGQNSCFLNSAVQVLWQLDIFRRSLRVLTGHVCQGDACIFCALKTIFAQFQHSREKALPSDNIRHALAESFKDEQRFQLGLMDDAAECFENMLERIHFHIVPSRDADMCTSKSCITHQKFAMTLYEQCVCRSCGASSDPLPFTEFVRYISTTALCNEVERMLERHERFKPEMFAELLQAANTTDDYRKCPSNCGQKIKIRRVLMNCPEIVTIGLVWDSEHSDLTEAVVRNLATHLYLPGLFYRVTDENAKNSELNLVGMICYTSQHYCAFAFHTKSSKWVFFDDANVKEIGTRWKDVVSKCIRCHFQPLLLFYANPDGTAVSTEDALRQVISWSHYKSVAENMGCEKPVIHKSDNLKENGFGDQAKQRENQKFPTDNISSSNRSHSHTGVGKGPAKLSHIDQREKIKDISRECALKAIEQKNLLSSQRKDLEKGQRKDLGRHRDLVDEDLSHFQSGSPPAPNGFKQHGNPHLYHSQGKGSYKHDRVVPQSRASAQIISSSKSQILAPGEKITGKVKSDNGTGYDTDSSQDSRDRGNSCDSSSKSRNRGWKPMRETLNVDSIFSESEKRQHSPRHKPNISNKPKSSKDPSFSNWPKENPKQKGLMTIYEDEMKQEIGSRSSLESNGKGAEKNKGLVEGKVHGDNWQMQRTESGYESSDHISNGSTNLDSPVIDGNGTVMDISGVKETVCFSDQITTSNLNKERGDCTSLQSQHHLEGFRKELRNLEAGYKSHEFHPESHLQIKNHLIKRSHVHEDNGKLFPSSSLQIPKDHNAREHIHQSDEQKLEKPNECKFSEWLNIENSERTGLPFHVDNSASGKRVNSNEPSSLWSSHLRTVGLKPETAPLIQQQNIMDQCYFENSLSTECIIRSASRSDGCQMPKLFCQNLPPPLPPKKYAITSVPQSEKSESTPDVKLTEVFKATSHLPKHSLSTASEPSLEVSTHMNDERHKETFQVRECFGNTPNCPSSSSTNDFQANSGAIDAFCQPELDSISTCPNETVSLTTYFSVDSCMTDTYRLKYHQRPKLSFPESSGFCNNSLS
Assay: affinity purification with mass spectrometry; HEK-293T transfected with Flag-USP53, lysed in IP buffer (20 mM Tris-HCl pH 7.4, 150 mM NaCl, 1 mM EDTA, 1% NP-40); anti-flag antibody or IgG with Protein A/G magnetic beads, more than 3 h at 4 °C; gel, silver staining, MS

How did the binding turn out when “cytochrome c (CYCS), endogenous (from UniProt P99999 1-105)” was run?
Its binding is “binds”.
